Experimental data: US20220017863A1, “SIRT2-ABLATED CHIMERIC T CELLS” (H. Lee Moffitt Cancer Center and Research Institute, Inc., priority 2019, published 2022)
No constants are given. Whether binding was seen depends on the method and setting. For some of these results: Binding seen in cells or lysates may run through a third protein. Some entries that bind do so weakly or less than the wild type.

The chains behind the UniProt entries cited, without tags or fusion partners. Residues count along the entry.
UniProt P17182, residues 2-434: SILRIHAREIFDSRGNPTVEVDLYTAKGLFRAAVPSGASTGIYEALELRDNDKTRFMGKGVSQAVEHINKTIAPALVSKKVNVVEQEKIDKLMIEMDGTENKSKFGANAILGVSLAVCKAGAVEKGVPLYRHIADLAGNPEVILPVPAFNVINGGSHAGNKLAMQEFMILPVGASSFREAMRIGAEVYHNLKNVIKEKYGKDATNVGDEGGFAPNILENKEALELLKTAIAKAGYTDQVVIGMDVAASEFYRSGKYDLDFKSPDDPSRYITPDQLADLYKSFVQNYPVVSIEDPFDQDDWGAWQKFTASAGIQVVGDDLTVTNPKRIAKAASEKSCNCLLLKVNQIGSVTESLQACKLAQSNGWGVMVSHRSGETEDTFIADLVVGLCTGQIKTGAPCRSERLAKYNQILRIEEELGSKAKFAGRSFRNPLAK
UniProt P16858: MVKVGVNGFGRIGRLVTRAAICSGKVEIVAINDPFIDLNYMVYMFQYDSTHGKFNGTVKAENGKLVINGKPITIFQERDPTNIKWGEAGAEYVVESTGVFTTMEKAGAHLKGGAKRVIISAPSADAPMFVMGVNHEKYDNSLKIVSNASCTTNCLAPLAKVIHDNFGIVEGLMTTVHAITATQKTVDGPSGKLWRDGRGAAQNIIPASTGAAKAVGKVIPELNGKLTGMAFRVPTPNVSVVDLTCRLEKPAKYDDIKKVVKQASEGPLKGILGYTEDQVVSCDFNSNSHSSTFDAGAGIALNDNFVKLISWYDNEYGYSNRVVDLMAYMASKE
UniProt Q8BMS1, residues 37-763: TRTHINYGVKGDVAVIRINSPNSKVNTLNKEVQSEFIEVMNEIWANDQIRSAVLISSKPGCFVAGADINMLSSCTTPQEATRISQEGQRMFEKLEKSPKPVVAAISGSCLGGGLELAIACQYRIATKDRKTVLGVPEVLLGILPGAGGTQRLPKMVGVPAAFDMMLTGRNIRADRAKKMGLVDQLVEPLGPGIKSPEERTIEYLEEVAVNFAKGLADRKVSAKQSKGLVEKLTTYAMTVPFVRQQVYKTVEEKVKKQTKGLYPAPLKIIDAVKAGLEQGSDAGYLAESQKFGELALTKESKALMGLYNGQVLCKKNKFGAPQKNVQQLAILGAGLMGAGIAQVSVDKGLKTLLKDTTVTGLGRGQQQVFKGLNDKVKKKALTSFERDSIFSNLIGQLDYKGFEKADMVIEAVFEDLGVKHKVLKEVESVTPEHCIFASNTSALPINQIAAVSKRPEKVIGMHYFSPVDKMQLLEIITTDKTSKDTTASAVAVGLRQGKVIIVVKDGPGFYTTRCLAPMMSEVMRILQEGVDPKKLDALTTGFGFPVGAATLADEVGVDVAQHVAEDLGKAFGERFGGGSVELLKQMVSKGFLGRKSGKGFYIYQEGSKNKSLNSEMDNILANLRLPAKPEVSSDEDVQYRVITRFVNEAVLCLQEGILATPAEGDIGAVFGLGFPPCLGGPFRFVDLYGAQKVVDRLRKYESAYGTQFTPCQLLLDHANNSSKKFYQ
UniProt D3Z7P3, residues 55-674: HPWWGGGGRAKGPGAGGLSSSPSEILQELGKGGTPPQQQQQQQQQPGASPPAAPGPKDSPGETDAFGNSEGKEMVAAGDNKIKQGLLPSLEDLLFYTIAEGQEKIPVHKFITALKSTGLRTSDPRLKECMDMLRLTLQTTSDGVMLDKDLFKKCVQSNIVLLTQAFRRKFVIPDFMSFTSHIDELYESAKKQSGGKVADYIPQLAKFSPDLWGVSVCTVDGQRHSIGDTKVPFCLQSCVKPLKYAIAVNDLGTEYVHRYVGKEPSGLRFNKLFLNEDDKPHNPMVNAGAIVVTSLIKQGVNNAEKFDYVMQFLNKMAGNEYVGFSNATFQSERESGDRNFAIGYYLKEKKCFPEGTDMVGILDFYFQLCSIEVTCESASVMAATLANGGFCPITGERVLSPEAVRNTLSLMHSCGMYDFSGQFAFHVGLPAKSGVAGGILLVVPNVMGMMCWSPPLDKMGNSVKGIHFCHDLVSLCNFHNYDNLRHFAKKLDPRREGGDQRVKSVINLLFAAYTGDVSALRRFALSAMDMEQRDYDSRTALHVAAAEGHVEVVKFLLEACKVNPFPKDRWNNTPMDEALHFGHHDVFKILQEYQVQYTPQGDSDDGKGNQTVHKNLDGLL

Tests used:
[1] = biological target: enolase 1 (ENO1) (mouse) (UniProt P17182); test: co-IP/immunoblot and reverse co-IP/immunoblot, activated WT mouse CD3+ T cell extracts
[2] = biological target: glyceraldehyde-3-phosphate dehydrogenase (GAPDH) (mouse) (UniProt P16858); test: as above
[3] = biological target: enolase 1 (ENO1) (mouse) (UniProt P17182); test: IP of Sirt2, LC-MS/MS, activated WT mouse CD3+ T cell extracts (FIG. 24A)
[4] = biological target: glyceraldehyde-3-phosphate dehydrogenase (GAPDH) (mouse) (UniProt P16858); test: as above
[5] = biological target: glyceraldehyde-3-phosphate dehydrogenase (GAPDH) (mouse) (UniProt P16858); test: reverse co-IP with antibody to the enzyme, anti-Sirt2 immunoblot, activated WT mouse CD3+ T cell extracts (FIG. 3C)
[6] = biological target: T1, Hydroxyacyl-CoA Dehydrogenase Trifunctional Multienzyme Complex Subunit Beta (HADHB) (mouse) (UniProt Q99JY0); test: co-IP with anti-Sirt2, immunoblot, activated WT mouse CD3+ T cell extracts
T1 sequence (looked up): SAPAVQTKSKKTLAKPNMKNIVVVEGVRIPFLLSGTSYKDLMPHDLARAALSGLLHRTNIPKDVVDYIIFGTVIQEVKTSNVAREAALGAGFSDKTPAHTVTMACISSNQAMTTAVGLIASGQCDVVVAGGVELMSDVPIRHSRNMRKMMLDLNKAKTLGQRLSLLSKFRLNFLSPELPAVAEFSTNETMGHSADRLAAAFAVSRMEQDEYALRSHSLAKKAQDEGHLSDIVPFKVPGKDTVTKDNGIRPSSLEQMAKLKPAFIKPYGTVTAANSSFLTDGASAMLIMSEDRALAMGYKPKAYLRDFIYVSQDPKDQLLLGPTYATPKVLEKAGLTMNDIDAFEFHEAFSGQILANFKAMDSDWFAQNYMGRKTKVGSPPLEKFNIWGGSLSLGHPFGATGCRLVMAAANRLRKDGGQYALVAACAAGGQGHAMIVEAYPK

[7] = biological target: Hydroxyacyl-CoA Dehydrogenase Trifunctional Multienzyme Complex Subunit Alpha (HADHA) (mouse) (UniProt Q8BMS1); test: as above
[8] = biological target: enolase 1 (ENO1) (mouse) (UniProt P17182); test: as above
[9] = biological target: glutaminase (GLS) (mouse) (UniProt D3Z7P3); test: as above
[10] = biological target: glyceraldehyde-3-phosphate dehydrogenase (GAPDH) (mouse) (UniProt P16858); test: as above
[11] = biological target: glyceraldehyde-3-phosphate dehydrogenase (GAPDH) (mouse) (UniProt P16858); test: reverse co-IP with antibody to the enzyme, anti-Sirt2 immunoblot, activated WT mouse CD3+ T cell extracts
[12] = biological target: T1, Hydroxyacyl-CoA Dehydrogenase Trifunctional Multienzyme Complex Subunit Beta (HADHB) (mouse); test: IP of Sirt2, LC-MS/MS, activated WT mouse CD3+ T cell extracts
[13] = biological target: Hydroxyacyl-CoA Dehydrogenase Trifunctional Multienzyme Complex Subunit Alpha (HADHA) (mouse) (UniProt Q8BMS1); test: as above
[14] = biological target: enolase 1 (ENO1) (mouse) (UniProt P17182); test: as above
[15] = biological target: glyceraldehyde-3-phosphate dehydrogenase (GAPDH) (mouse) (UniProt P16858); test: as above
[16] = biological target: enolase 1 (ENO1) (mouse) (UniProt P17182); test: co-IP with anti-Sirt2, immunoblot, activated WT mouse CD3+ T cell extracts (FIG. 3B)
[17] = biological target: glyceraldehyde-3-phosphate dehydrogenase (GAPDH) (mouse) (UniProt P16858); test: as above
[18] = biological target: enolase 1 (ENO1) (mouse) (UniProt P17182); test: anti-Sirt2 co-IP vs isotype control, LC-MS/MS, activated WT mouse CD3+ T cell extracts
[19] = biological target: glyceraldehyde-3-phosphate dehydrogenase (GAPDH) (mouse) (UniProt P16858); test: as above

Measured: binding

B1: Sirt2 (enzyme, mouse, UniProt Q8VDQ8 2-389, looked up)
chain: AEPDPSDPLETQAGKVQEAQDSDSDTEGGATGGEAEMDFLRNLFTQTLGLGSQKERLLDELTLEGVTRYMQSERCRKVICLVGAGISTSAGIPDFRSPSTGLYANLEKYHLPYPEAIFEISYFKKHPEPFFALAKELYPGQFKPTICHYFIRLLKEKGLLLRCYTQNIDTLERVAGLEPQDLVEAHGTFYTSHCVNTSCRKEYTMGWMKEKIFSEATPRCEQCQSVVKPDIVFFGENLPSRFFSCMQSDFSKVDLLIIMGTSLQVQPFASLISKAPLATPRLLINKEKTGQTDPFLGMMMGLGGGMDFDSKKAYRDVAWLGDCDQGCLALADLLGWKKELEDLVRREHANIDAQSGSQAPNPSTTISPGKSPPPAKEAARTKEKEEQQ
binds: [1] | [2] | [3] | [4] | [5] | [6] | [7] | [8] | [9] | [10] | [11] | [12] | [13] | [14] | [15] | [16] | [17] | [18] | [19]
